The source of these data is article PMC5612983.

Experiment [1] addresses T1, galectin-4 (rat (endogenous in PC12)) (UniProt P38552).
T1 sequence: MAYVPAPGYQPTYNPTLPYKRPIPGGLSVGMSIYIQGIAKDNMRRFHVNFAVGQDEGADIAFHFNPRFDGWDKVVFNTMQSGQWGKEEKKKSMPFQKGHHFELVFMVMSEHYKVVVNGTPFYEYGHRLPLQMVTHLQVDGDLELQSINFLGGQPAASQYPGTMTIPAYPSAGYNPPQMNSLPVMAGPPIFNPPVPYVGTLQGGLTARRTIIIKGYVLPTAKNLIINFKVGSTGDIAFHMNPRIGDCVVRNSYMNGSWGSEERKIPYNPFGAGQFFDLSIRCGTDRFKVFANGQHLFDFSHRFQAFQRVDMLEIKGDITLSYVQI
As to the kind of experiment: co-IP; PC12 cells reversibly cross-linked with DSP, lysed in PBS, 5 mM EDTA, 0.5% Triton X-100; supernatants incubated with anti-Gal-4 or anti-contactin 1 antibodies at 4 °C for 18 hours, bound to protein-A- or protein-G-Sepharose; SDS-PAGE and WB for contactin 1 or Gal-4.

Experiment [2] deals with T2, contactin 1 (rat (endogenous in PC12)) (UniProt Q63198).
T2 sequence: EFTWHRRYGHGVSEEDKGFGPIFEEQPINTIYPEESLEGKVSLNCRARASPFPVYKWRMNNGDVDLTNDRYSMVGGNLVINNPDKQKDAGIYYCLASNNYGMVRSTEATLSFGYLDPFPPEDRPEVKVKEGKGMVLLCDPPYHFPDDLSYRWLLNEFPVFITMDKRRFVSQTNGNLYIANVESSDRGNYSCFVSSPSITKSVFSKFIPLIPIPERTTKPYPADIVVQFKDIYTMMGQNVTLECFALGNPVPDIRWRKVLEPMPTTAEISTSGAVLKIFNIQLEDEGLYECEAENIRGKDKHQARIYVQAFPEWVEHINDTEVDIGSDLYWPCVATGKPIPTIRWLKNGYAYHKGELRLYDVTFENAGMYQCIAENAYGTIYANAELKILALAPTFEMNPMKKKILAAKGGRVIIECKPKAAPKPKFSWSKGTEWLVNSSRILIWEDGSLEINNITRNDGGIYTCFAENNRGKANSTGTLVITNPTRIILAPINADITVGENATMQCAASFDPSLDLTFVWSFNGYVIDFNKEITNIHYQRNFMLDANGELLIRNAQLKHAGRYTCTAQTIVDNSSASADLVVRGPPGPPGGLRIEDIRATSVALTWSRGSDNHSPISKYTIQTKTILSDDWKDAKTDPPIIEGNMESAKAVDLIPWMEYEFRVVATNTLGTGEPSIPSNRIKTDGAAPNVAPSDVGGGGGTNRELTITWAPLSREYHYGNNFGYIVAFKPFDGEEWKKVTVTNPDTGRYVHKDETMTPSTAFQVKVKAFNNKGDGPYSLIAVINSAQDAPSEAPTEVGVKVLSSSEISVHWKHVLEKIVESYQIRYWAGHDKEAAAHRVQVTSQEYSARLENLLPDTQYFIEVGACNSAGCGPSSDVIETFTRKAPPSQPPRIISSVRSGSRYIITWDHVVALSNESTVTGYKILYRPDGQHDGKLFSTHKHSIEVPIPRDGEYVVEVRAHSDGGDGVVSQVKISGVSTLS
Described as above.

No constants are given. Whether binding was seen depends on the method and setting. Binding seen in cells or lysates may run through a third protein. Some binding calls cover weakened binding; strength is not graded here.

B1: contactin 1 (protein, UniProt Q63198 21-1001)
chain: T2 sequence
With B1, in experiment [1], the binding entry is “binds”.

B2: galectin-4 (protein, UniProt P38552 1-324)
chain: T1 sequence
For B2, the binding result in experiment [2] is listed as “binds”.
